In the supplement of paper PMC10849652:
Some of the results follow.

Chains of the proteins cited; added tags and fusions are not shown. Lines headed by an entry give the natural chain unless they say otherwise; changes in a name come on top.
UniProt Q9Y2B1: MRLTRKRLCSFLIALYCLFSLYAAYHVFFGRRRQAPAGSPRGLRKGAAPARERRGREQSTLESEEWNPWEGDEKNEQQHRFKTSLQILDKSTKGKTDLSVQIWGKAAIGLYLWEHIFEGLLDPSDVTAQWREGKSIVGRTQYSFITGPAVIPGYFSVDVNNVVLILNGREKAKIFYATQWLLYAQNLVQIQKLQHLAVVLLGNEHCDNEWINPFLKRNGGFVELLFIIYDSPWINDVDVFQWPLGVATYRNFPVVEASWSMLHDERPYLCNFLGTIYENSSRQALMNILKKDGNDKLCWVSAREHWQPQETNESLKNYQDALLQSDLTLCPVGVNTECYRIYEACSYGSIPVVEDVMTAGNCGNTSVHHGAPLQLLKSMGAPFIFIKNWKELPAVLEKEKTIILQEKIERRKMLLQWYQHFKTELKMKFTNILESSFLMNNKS
UniProt Q7L099: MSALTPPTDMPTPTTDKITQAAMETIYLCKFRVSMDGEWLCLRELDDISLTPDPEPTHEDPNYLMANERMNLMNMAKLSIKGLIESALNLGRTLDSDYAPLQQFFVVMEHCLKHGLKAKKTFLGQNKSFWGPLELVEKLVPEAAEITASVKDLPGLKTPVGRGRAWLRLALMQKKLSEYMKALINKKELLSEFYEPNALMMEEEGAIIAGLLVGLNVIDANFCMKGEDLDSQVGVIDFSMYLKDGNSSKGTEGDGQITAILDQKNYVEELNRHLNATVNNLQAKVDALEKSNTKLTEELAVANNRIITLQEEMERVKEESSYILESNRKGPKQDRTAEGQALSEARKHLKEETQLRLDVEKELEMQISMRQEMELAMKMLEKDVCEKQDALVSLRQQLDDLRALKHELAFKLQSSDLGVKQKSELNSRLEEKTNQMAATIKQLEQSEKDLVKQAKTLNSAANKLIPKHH
UniProt Q9BZR6: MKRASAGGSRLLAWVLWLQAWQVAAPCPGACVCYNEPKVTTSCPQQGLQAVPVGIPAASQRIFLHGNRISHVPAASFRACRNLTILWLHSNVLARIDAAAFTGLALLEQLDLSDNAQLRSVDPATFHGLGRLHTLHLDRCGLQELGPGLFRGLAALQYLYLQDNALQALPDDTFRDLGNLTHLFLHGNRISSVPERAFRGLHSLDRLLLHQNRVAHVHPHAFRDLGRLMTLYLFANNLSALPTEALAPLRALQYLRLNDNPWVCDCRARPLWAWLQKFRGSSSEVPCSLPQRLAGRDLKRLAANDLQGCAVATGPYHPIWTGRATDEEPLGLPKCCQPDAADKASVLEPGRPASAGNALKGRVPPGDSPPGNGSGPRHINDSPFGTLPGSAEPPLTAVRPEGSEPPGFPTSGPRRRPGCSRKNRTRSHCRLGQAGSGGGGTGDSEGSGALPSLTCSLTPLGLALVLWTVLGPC
UniProt Q9Y3V2: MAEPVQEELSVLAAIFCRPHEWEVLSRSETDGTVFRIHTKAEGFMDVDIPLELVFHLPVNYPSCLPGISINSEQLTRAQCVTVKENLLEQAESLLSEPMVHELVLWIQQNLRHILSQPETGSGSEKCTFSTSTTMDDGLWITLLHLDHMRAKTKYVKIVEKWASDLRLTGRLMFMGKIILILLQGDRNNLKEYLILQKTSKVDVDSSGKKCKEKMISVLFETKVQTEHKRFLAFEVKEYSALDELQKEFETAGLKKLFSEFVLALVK
UniProt Q96C34: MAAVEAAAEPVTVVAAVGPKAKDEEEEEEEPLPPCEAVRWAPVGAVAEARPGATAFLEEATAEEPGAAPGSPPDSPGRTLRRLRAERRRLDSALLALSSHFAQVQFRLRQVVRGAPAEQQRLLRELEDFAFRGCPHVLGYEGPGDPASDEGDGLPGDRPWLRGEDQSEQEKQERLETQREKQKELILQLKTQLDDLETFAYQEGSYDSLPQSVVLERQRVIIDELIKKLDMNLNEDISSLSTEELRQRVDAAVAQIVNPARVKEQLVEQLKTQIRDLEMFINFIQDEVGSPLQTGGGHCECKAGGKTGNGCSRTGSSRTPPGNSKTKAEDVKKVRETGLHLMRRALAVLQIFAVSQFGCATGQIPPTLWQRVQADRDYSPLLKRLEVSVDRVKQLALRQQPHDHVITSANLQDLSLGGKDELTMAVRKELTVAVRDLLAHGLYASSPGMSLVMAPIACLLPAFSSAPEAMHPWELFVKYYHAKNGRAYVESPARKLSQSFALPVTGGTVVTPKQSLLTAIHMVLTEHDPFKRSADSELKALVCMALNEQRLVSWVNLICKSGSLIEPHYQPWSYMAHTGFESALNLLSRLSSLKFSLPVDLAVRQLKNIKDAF
UniProt Q9NQC3: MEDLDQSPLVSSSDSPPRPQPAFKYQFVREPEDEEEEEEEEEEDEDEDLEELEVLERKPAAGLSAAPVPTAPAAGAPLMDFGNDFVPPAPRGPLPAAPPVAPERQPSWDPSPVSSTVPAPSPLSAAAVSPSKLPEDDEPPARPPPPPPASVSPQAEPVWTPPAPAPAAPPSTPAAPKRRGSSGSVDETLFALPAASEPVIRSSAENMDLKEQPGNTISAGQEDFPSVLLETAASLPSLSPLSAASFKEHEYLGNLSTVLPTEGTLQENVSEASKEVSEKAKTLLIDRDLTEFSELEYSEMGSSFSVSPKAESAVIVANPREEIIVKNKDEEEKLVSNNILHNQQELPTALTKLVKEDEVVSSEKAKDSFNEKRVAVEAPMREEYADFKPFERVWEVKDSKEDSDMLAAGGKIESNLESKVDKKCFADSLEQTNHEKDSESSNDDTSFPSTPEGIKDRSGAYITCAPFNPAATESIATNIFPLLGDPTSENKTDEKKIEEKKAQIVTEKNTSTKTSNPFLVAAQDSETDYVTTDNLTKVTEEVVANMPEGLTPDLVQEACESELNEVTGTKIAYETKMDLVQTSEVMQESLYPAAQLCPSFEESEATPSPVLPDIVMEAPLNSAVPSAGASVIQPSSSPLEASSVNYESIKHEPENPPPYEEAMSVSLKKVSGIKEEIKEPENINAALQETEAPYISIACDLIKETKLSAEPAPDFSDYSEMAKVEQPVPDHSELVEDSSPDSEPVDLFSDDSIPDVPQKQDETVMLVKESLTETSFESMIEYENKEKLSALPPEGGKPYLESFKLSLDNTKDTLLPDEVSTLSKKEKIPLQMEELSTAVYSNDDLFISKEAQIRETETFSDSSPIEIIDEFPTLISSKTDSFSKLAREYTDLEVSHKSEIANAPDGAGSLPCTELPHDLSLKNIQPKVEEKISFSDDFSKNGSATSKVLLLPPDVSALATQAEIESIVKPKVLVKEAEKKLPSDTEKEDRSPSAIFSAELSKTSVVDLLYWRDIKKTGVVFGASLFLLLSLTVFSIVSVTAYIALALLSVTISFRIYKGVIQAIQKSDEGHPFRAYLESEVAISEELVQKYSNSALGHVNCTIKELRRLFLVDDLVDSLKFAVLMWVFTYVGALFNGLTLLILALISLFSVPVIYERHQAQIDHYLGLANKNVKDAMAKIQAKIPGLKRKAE
UniProt O95197: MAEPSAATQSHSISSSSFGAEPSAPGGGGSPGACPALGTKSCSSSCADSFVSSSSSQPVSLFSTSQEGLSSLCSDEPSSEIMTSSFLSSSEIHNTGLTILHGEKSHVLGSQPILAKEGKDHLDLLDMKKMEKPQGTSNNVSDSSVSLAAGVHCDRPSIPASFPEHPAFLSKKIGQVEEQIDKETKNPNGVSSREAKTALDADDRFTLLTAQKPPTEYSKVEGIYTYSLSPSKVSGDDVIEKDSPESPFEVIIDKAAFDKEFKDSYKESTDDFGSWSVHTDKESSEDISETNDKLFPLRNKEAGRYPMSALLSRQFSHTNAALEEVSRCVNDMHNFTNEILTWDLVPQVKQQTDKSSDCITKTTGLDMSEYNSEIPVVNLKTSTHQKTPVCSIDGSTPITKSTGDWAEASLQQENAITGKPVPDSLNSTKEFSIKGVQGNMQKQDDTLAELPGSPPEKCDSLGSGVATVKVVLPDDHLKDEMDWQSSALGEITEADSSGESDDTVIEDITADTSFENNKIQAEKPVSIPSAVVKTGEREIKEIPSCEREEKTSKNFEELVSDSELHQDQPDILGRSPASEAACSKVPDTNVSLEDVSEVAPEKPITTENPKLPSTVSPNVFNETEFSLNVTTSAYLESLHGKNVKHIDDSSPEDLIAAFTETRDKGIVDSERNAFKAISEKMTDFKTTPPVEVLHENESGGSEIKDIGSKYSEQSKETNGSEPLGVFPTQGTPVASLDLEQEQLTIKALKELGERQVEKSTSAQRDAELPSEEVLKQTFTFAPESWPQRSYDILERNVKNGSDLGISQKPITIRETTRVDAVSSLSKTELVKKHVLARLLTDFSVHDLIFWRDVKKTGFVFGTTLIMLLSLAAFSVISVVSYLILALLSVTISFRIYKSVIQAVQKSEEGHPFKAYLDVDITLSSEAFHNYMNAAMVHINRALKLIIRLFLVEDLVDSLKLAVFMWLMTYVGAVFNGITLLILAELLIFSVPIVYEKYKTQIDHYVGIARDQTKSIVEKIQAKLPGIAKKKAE
UniProt P60903, whole entry, looked up: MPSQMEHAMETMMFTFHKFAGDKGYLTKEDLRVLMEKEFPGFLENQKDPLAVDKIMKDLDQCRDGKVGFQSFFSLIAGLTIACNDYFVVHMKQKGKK
UniProt Q92681: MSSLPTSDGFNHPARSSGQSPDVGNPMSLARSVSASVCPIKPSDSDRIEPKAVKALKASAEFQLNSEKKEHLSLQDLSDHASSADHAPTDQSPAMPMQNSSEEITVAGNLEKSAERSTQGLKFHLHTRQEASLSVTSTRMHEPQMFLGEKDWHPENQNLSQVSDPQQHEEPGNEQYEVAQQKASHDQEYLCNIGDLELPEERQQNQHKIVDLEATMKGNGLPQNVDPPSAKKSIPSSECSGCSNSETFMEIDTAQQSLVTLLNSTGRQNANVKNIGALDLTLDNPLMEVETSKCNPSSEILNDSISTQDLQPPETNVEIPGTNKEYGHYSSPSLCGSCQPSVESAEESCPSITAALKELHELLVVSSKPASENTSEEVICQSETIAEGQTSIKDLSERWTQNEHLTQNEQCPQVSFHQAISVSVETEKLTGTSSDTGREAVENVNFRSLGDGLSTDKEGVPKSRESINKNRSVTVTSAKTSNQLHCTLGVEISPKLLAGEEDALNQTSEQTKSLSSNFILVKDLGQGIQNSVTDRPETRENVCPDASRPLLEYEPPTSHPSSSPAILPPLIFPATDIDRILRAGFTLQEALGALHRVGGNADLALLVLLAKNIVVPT

Columns and labels:
Assay in all cases: log2 fold change, soluble protein after heating vs DMSO (PISA); higher = thermal stabilisation; K562 lysate, 10 uM; active = over 0.2 and 3.5 SD of the protein, either way, in both replicates (recomputed)
vorinostat = compound: O=C(CCCCCCC(=O)Nc1ccccc1)NO [vorinostat]
Procedure, shortened: (§1)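 K562 pellets were dounce-homogenised in PBS pH 7.4 containing 1 mM MgCl2, and the crude extract, at 1 mg/mL protein, was exposed to 10 μM compound for 30 min. Aliquots were heated for 3 min across 48°C-58°C, pooled, brought to 0.5% NP-40 at 4°C and spun at 21,000xg for 90 min, with the supernatant taken as soluble protein. TMTpro 16plex LC-MS/MS with equalised channel sums quantified that protein. Values are log-two fold changes in thermal stability relative to solvent controls, taken from duplicates.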

silmitasertib = compound: O=C(O)c1ccc2c(c1)nc(Nc1cccc(Cl)c1)c1ccncc12 [silmitasertib]
Procedure, shortened: as §1

[1] = compound: O=C1NC(=O)C(c2cnc3ccccn23)=C1c1cn2c3c(cc(F)cc13)CN(C(=O)N1CCCCC1)CC2
Procedure, shortened: as §1

[2] = compound: NCC(=O)Nc1ccc(-n2nc(C(F)(F)F)cc2-c2ccc3c(ccc4ccccc43)c2)cc1
Procedure, shortened: as §1

entospletinib = compound: c1cn2cc(-c3ccc4cn[nH]c4c3)nc(Nc3ccc(N4CCOCC4)cc3)c2n1 [entospletinib]
Procedure, shortened: as §1

Measured: log2 fold change

RXYLT1 (UniProt Q9Y2B1)
inactive: vorinostat 0.154 | silmitasertib -0.078

RUFY3 isoform 2 (UniProt Q7L099)
inactive: vorinostat 0.119 | silmitasertib -0.058 | [1] -0.022

RTN4R (UniProt Q9BZR6)
inactive: vorinostat 0.351 | silmitasertib -0.246

RWDD3 (UniProt Q9Y3V2)
inactive: [1] -0.033

RPL37A (UniProt P61513)
inactive: [2] 0.028 | vorinostat 0.08 | silmitasertib -0.021 | [1] 0.093 | entospletinib -0.005

RUNDC1 (UniProt Q96C34)
inactive: vorinostat -0.335 | silmitasertib -0.157 | [1] -0.026

RTN4 isoform 5 (UniProt Q9NQC3)
inactive: [2] 0.133 | vorinostat 0.113 | silmitasertib 0.023 | [1] 0.038 | entospletinib -0.005

RTN3 isoform 5 (UniProt O95197)
inactive: [2] -0.013 | vorinostat -0.372 | silmitasertib -0.035 | [1] 0.095 | entospletinib 0.123

RPS7, A0A2R8Y623
inactive: [2] 0.031 | vorinostat -0.037 | silmitasertib -0.121 | entospletinib -0.391

RPS8 (UniProt P62241)
inactive: [2] 0.015 | vorinostat 0.115 | silmitasertib 0.005 | [1] 0.039 | entospletinib 0.005

2 neighbouring entries already listed, quoted:
RPS7, A0A2R8Y623
inactive: [2] 0.031 | vorinostat -0.037 | silmitasertib -0.121 | entospletinib -0.391

RPS8 (UniProt P62241)
inactive: [2] 0.015 | vorinostat 0.115 | silmitasertib 0.005 | [1] 0.039 | entospletinib 0.005

Additional records follow.

S100A10 (UniProt P60903)
inactive: vorinostat -0.037 | silmitasertib -0.1 | [1] -0.117

RSC1A1 (UniProt Q92681)
inactive: [1] -0.127
